Laboratory results taken from patent US11427605B2, “Crystalline forms of 5-chloro-N4-[-2-(dimethylphosphoryl) phenyl]-N2-{2-methoxy-4-[4-(4-methylpiperazin-1-yl) piperidin-1-yl] phenyl} pyrimidine-2,4-diamine” (ARIAD Pharmaceuticals, Inc., priority 2014, dated 2022).
Some entries share one result that the patent states for a list of compounds.

Test: Dissolution rate from a powdered sample in water
Assay type: physicochemical
Conditions: powder, 37° C.
Method: For determining the dissolution rate from a powdered sample, approximately 5 mg of brigatinib (Form A or B) was weighed into a 5 mL dissolution vial and the dissolution probe was inserted into the vial. Subsequently, 4 mL of water was added at the same time the measurement was initiated. The concentration was recorded for 20 h.
For measuring the dissolution rate from powder, the test was only performed in water for Forms A and B at 37° C., as the solubilities of Forms A and B were […] enough to permit detection.

Compound | Time until concentration reached a “maximum” [min]
COc1cc(N2CCC(N3CCN(C)CC3)CC2)ccc1Nc1ncc(Cl)c(Nc2ccccc2P(C)(C)=O)n1 [Form A, brigatinib] | ≤ 10
COc1cc(N2CCC(N3CCN(C)CC3)CC2)ccc1Nc1ncc(Cl)c(Nc2ccccc2P(C)(C)=O)n1 [Form B, brigatinib] | ≤ 10
